Assay results taken from patent US8575305B2, “Cell penetrating peptides” (priority 2008, dated 2013).
Some entries share one result that the patent states for a list of compounds.

Test system: aberrant β-globin intron (705 site) in HeLa pLuc705 cells
Test: RT-PCR analysis of splice correction in HeLa pLuc705 cells
Assay type: cell-based
Details: conjugates with PNA705 (FIG. 15)
Description: RT-PCR can also be used to assess splice correction in the HeLa pLuc705 luciferase splice correction assay of Kole et al.
To perform RT-PCR analysis of splice correction, total RNA was extracted from 300 μL of combined cell lysates (3×100 μL) from triplicate wells corresponding to each conjugate concentration using 1 mL of TRI Reagent (Ambion).

Pip-2c: cell penetrating peptide SEQ ID NO: 23; tested as PNA705 conjugate
EC50: < 0.8 µM
